# Record: PubChem BioAssay AID1259405 (NCATS, 2018)
# Assay: 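Knock-downs that lift recombinant protein yield in hamster ovary cells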 (primary screen)
# Cell system: Chinese hamster CHO-K1 ovary cells with stable secreted eGFP expression
# Reagent: single siRNA against mouse genes, 0.8 pmol siRNA per well (2 µl of 400 nM stock)
# Timing: 3 days
# Detection: 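Percent of the per-plate non-targeting control median for intracellular GFP per well by laser scanning cytometry and for cell viability by ATP luminescence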
# Direction: GFP, % of control: higher = more GFP per well, higher productivity; viability (ATP), % of control: higher = more viable cells (more ATP)
# Rule for the call: 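a knock-down is called active if GFP reaches 120% or more of non-targeting control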
# This is a random part of about 50,000 reagents tested. Of all reagents, about 4,000 (8%) were called active. 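Mouse siRNA library applied to hamster cells; one well for each siRNA.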 Unmarked entries are inactive. The numbers tell different reagents against one gene apart.
gene,siRNA no.,"GFP, % of control","viability (ATP), % of control"
Umod,1,50.2,52.4
Umod,2,37.2,54.3
Umod,3,71.3,86.8
Luzp1,1,54.3,66.9
Luzp1,2,99,76.2
Luzp1,3,96.8,73.7
Palm,1,36.3,35.4
Palm,2,80.3,66.4
Palm,3,110,82.2
Phospho1,1,85.2,96.2
Phospho1,2,94.8,76.6
Sephs1,1,117,114
Sephs1,2,88,152
Sephs1,3,76.7,72.3
Vsx1,1,72.2,93.6
Vsx1,2,79.4,86
Zrsr2,1,75.3,64.2
Zrsr2,2,49.1,34.7
Zrsr2,3,122 (active),89.2
Or2a25,1,81.9,56.5
Or2a25,2,69.5,73.3
Or2a25,3,62.3,47.9
Trim7,1,40,47.2
Trim7,2,52.8,57.1
Trim7,3,95.9,73.4
Vmn1r11,1,47.7,63.1
Vmn1r11,2,48.1,36.1
Vmn1r11,3,64.4,97.2
Kndc1,1,37.7,21.6
Kndc1,2,81.8,70.7
Kndc1,3,110,76.9
Ccl8,1,67.5,50.8
Ccl8,2,38.5,46.2
Ccl8,3,29.6,34.9

Called active, of those listed so far:
gene,siRNA no.,"GFP, % of control","viability (ATP), % of control"
Zrsr2,3,122 (active),89.2

The results go on.
gene,siRNA no.,"GFP, % of control","viability (ATP), % of control"
Map7,1,106,116
Map7,2,42.1,61.7
Sdr9c7,1,103,111
Sdr9c7,2,86,71
Sdr9c7,3,80,81.6
Ankef1,1,115,63.4
Ankef1,2,99.1,94.1
Ankef1,3,93.3,97
Ndufs6,1,72.7,85.7
Ndufs6,2,112,95.1
Ndufs6,3,87.6,55.2
Pcgf6,1,53,61.7
Pcgf6,2,73.6,123
Pcgf6,3,75.7,81.4
Actc1,1,104,107
Actc1,2,59.4,70.4
Anks1b,1,44.4,33
Anks1b,2,74.3,71.9
Anks1b,3,60.2,69
Rpl37a,1,33.8,24
Rpl37a,2,80.8,87.1
Rpl37a,3,47.7,26.1
Cdkn2b,1,54.5,58.7
Cdkn2b,2,75.9,45.5
Cdkn2b,3,85.8,108
Triap1,1,99.8,97.7
Triap1,2,60,68.6
Triap1,3,113,71.9
Slc25a23,1,91.3,114
Slc25a23,2,79.5,96.4
Slc25a23,3,20.3,30.5
Hexa,1,64.9,77.9
Hexa,2,70.3,83.3
Hexa,3,188 (active),77.3
Ndc80,1,121 (active),48.7
Ndc80,2,70.8,40.6
Ndc80,3,104,85.2
Ugt1a1,1,62.9,72.5
Ugt1a1,2,56.5,79.5
Ugt1a1,3,69.5,70.4
Sirt7,1,70,64.5
Sirt7,2,71.7,66.2
Sirt7,3,111,69.4
Or6b9,1,56.3,47.4
Or6b9,2,70.7,71.1
Or6b9,3,66.1,77.8
Psg21,1,112,65.8
Psg21,2,67.3,51.9
Psg21,3,86.9,104
Rab9b,1,94.5,108
Rab9b,2,77.4,54.6
Rab9b,3,36.9,35.2
